4 molecules from patent publication US20070271623A1 can be followed below.

Protein sequences, listed by entry. Tags and fused reporters are not part of them. Lines headed by an entry give the natural chain unless they say otherwise; changes in a name come on top. Residues count along the entry.
UniProt Q8S8P5, residues 332-519: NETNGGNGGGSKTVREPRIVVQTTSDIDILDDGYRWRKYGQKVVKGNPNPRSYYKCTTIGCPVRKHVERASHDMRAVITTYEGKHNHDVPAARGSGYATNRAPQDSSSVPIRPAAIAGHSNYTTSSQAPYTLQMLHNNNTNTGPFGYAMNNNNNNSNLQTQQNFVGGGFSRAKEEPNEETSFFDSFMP
UniProt P04386: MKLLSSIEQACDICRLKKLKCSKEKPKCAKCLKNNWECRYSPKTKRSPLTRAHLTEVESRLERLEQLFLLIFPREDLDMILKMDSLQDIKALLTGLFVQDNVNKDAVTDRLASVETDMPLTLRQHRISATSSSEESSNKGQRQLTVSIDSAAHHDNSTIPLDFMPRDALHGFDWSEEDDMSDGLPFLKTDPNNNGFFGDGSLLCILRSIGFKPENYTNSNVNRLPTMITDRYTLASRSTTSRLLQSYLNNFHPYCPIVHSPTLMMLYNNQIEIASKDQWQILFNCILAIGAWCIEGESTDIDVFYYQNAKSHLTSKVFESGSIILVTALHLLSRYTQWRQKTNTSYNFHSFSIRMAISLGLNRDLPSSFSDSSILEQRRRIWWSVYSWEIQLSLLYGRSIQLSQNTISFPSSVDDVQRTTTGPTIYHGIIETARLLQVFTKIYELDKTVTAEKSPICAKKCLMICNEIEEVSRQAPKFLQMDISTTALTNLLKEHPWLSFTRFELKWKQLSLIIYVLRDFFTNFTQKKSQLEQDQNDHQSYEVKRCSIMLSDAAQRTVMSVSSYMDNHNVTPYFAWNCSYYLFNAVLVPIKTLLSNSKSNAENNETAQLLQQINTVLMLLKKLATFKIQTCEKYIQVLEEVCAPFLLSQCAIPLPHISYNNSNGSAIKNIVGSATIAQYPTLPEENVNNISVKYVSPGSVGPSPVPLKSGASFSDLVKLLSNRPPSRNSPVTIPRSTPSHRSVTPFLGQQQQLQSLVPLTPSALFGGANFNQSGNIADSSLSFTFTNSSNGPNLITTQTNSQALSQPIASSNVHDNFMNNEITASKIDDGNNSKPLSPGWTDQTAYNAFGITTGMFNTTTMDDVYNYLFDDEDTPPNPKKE
UniProt Q39024: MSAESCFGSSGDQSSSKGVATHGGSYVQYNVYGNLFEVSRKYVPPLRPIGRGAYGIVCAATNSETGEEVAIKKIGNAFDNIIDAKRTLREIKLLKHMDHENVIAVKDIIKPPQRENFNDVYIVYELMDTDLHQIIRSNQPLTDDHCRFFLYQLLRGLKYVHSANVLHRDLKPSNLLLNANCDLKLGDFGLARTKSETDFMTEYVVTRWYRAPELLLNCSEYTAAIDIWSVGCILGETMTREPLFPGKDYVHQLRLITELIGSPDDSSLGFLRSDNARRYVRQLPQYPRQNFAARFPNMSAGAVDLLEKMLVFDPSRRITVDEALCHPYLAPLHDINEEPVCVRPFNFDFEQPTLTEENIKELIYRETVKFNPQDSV

These are yes or no findings as the source states them, for the method shown. Some results given as binding are weak or reduced against the parent protein; the word gives no strength. For some of these results: Tags and fused reporters may be left off the sequences shown.

For test [1], the target named is WRKY33 as prey (AD fusion) (Arabidopsis thaliana) (UniProt Q8S8P5). The test is described as follows: yeast two-hybrid assay.
In test [2] the target is MPK4 as bait (BD fusion) (Arabidopsis thaliana) (UniProt P04386+Q39024). The test is described as follows: yeast two-hybrid library screen.

B1: C1-MKS1 truncation (amino acids 1-196), two-hybrid construct (protein, not shown: large carriers)
chain: MDPSEYFAGGNPSDQQNQKRQLQICGPRPSPLSVHKDSHKIKKPPKHPAPPPNRDQPPPYIPREPVVIYAVSPKVVHATASEFMNVVQRLTGISSGVFLESGGGGDVSPAARLASTENASPRGGKEPAARDETVEINTAMEEAAEFGGYAPGILSPSPALLPTASTGIFSPMYHQGGMFSPAIPLGLFSPAGFMSP
As to B1, the binding entry in test [1] is “binds”.

B2: C2-MKS1 truncation (amino acids 1-123), two-hybrid construct (protein, not shown: large carriers)
chain: MDPSEYFAGGNPSDQQNQKRQLQICGPRPSPLSVHKDSHKIKKPPKHPAPPPNRDQPPPYIPREPVVIYAVSPKVVHATASEFMNVVQRLTGISSGVFLESGGGGDVSPAARLASTENASPRG
Take B2: the binding entry in test [1] is recorded as “binds”.

B3: N1-MKS1, N-terminal truncated form (amino acids 55-222), two-hybrid construct (protein, not shown: large carriers)
chain: DQPPPYIPREPVVIYAVSPKVVHATASEFMNVVQRLTGISSGVFLESGGGGDVSPAARLASTENASPRGGKEPAARDETVEINTAMEEAAEFGGYAPGILSPSPALLPTASTGIFSPMYHQGGMFSPAIPLGLFSPAGFMSPFRSPGFTSLVASPTFADFFSHIWDQD
As to B3, the binding result in test [1] is listed as “binds”.

B4: MKS1 as interacting prey (AD fusion) (protein, not shown: large carriers)
chain: MDPSEYFAGGNPSDQQNQKRQLQICGPRPSPLSVHKDSHKIKKPPKHPAPPPNRDQPPPYIPREPVVIYAVSPKVVHATASEFMNVVQRLTGISSGVFLESGGGGDVSPAARLASTENASPRGGKEPAARDETVEINTAMEEAAEFGGYAPGILSPSPALLPTASTGIFSPMYHQGGMFSPAIPLGLFSPAGFMSPFRSPGFTSLVASPTFADFFSHIWDQD
As for B4, the binding entry in test [2] is reported as “binds”.
